Measurements published in patent publication US20080275018A1 (AiCuris GmbH & Co. KG, priority 2005, published 2008).

Experiment: general procedure: solution-phase peptide synthesis; EDC/HOBt; PyBOP
Details: coupling step, hydrochloride
With “Benzyl ((1S)-4-{[(2S)-5-{[(benzyloxy)carbonyl]amino}-2-({[(8S,11S,14S)-14-[(tert-butoxycarbonyl)amino]-11-{3-[(tert-butoxycarbonyl)amino]propyl}-17-hydroxy-9-methyl-10,13-dioxo-9,12-diazatricyclo[14.3.1.1^2,6]henicosa-1(20),2(21),3,5,16,18-hexaen-8-yl]carbonyl}amino)pentanoyl]amino}-1-{2-[(2-{[(benzyloxy)carbonyl]amino}ethyl)amino]-2-oxoethyl}butyl)carbamate” the step yield was 25% of theory.
In the case of “Benzyl [(1S)-4-{[(benzyloxy)carbonyl]amino}-1-({[3-({[(8S,11S,14S)-14-[(tert-butoxycarbonyl)amino]-11-{(2R)-3-[(tert-butoxycarbonyl)amino]-2-hydroxypropyl}-17-hydroxy-9-methyl-10,13-dioxo-9,12-diazatricyclo[14.3.1.1^2,6]henicosa-1(20),2(21),3,5,16,18-hexaen-8-yl]carbonyl}amino)-2-hydroxypropyl]amino}carbonyl)butyl]carbamate”, the step yield was 30% of theory.

Same assay, conditions: late stage modification step, hexahydrochloride
With “(8S,11S,14S)-14-Amino-N-((1S)-4-amino-1-{[((4S)-4-amino-6-{[(2S)-2,5-diaminopentyl]-amino}-6-oxohexyl)amino]carbonyl}butyl)-11-(3-aminopropyl)-17-hydroxy-10,13-dioxo-9,12-diazatricyclo[14.3.1.1^2,6]henicosa-1 (20),2(21),3,5,16,18-hexaene-8-carboxamide hexahydrochloride” the step yield was 78% of theory.
For “(8S,11S,14S)-14-Amino-N-((1S)-4-amino-1-{[((4S)-4-amino-6-{[(25)-2,5-diaminopentyl]amino}-6-oxohexyl)amino]carbonyl}butyl)-11-[(2R)-3-amino-2-hydroxypropyl]-17-hydroxy-10,13-dioxo-9,12-diazatricyclo[14.3.1.1^2,6]henicosa-1(20),2(21),3,5,16,18-hexaene-8-carboxamide hexahydrochloride”, the step yield was 78% of theory.
With “(8S,11S,14S)-14-Amino-N-[(1S)-4-amino-1-({[(1S)-4-amino-1-(2-{[(2S)-2,5-diaminopentyl]-amino}-2-oxoethyl)butyl]amino}carbonyl)butyl]-11-(3-aminopropyl)-17-hydroxy-10,13-dioxo-9,12-diazatricyclo[14.3.1.1^2,6]henicosa-1(20),2(21),3,5,16,18-hexaene-8-carboxamide hexahydrochloride” the step yield was 99% of theory.
For “(8S,11S,14S)-14-Amino-N-[(1S)-4-amino-1-({[(1S)-4-amino-1-(2-{[(2S)-2,5-diaminopentyl]-amino}-2-oxoethyl)butyl]amino}carbonyl)butyl]-11-[(2R)-3-amino-2-hydroxypropyl]-17-hydroxy-10,13-dioxo-9,12-diazatricyclo[14.3.1.1^2,6]henicosa-1(20),2(21),3,5,16,18-hexaene-8-carboxamide hexahydrochloride”, the step yield was 99% of theory.

Same assay, conditions: late stage modification step, hydrochloride
In the case of “(8S,11S,14S)-14-Amino-N-(1-(2-aminoethyl)-3-{[(2S)-2,5-diaminopentyl]amino}-3-oxopropyl)-11-(3-aminopropyl)-17-hydroxy-10,13-dioxo-9,12-diazatricyclo[14.3.1.1^2,6]henicosa-1(20),2(21),3,5,16,18-hexaene-8-carboxamide penta(hydrotrifluoroacetate)”, the step yield was 57% of theory.
With “(8S,11S,14S)-14-Amino-N-[(1S)-4-amino-1-(2-{[(2S)-2,5-diaminopentyl]amino}-2-oxoethyl)butyl]-11-[(2R)-3-amino-2-hydroxypropyl]-17-hydroxy-9-methyl-10,13-dioxo-9,12-diazatricyclo[14.3.1.1^2,6]henicosa-1(20),2(21),3,5,16,18-hexaene-8-carboxamide pentahydrochloride” the step yield was 95% of theory.

Same assay, conditions: late stage modification step, pentahydrochloride
In the case of “(8S,11S,14S)-14-Amino-N-((1S)-4-amino-1-{[((1S)-4-amino-1-{2-[(2-aminoethyl)amino]-2-oxoethyl}butyl)amino]carbonyl}butyl)-11-(3-aminopropyl)-17-hydroxy-10,13-dioxo-9,12-diazatricyclo[14.3.1.1^2,6]henicosa-1(20),2(21),3,5,16,18-hexaene-8-carboxamide pentahydrochloride”, the step yield was 99% of theory.
In the case of “(8S,11S,14S)-14-Amino-N-((1S)-4-amino-1-{[((1S)-4-amino-1-{2-[(2-aminoethyl)amino]-2-oxoethyl}butyl)amino]carbonyl}butyl)-11-[(2R)-3-amino-2-hydroxypropyl]-17-hydroxy-10,13-dioxo-9,12-diazatricyclo[14.3.1.1^26]henicosa-1(20),2(21),3,5,16,18-hexaene-8-carboxamide pentahydrochloride”, the step yield was 99% of theory.
For “(8S,11S,14S)-14-Amino-N-[(s)-4-amino-1-({[(25)-2,5-diaminopentyl]amino}carbonyl)butyl]-11-(3-aminopropyl)-17-hydroxy-10,13-dioxo-9,12-diazatricyclo[14.3.1.1^2,6]henicosa-1(20),2(21),3,5,16,18-hexaene-8-carboxamide pentahydrochloride”, the step yield was 93% of theory.
With “(8S,11S,14S)-14-Amino-N-{(1S)-4-amino-1-[({(4S)-4-amino-6-[(2-aminoethyl)amino]-6-oxohexyl}amino)carbonyl]butyl}-11-(3-aminopropyl)-17-hydroxy-10,13-dioxo-9,12-diazatricyclo[14.3.1.1^2,6]henicosa-1(20),2(21),3,5,16,18-hexaene-8-carboxamide pentahydrochloride” the step yield was 99% of theory.
For “(8S,11S,145)-14-Amino-N-{(1S)-4-amino-1-[({(4S)-4-amino-6-[(2-aminoethyl)amino]-6-oxohexyl}amino)carbonyl]butyl}-11-[(2R)-3-amino-2-hydroxypropyl]-17-hydroxy-10,13-dioxo-9,12-diazatricyclo[14.3.1.1^2,6]henicosa-1(20),2(21),3,5,16,18-hexaene-8-carboxamide pentahydrochloride”, the step yield was 99% of theory.
For “(8S,15S,14S)-14-Amino-N-((1S)-1-(aminomethyl)-2-{[(2S)-2,5-diaminopentyl]amino}-2-oxoethyl)-11-(3-aminopropyl)-17-hydroxy-10,13-dioxo-9,12-diazatricyclo[14.3.1.1^2,6]henicosa-1 (20),2(21),3,5,16,18-hexaene-8-carboxamide pentahydrochloride”, the step yield was 99% of theory.
With “N^5—(N^2-{[(8S,11S,14S)-14-Amino-1-(3-aminopropyl)-17-hydroxy-10,13-dioxo-9,12-diazatricyclo[14.3.1.1^2,6]henicosa-1(20),2(21),3,5,16,18-hexaen-8-yl]carbonyl}-L-ornithyl)-N-(2-aminoethyl)-L-ornithinamide pentahydrochloride” the step yield was 99% of theory.

Same assay, conditions: late stage modification step, tetrahydrochloride
For “(8S,11S,14S)-14-Amino-11-[(2R)-3-amino-2-hydroxypropyl]-N-(2-{[(2S)-2,5-diaminopentyl]-amino}-2-oxoethyl)-17-hydroxy-10,13-dioxo-9,12-diazatricyclo[14.3.1.1^2,6]henicosa-1(20),2(21),3,5,16,18-hexaene-8-carboxamide tetrahydrochloride”, the step yield was 64% of theory.
With “(8S,11S,14S)-14-Amino-N-((1S)-4-amino-1-{[(2-aminoethyl)amino]carbonyl}butyl)-11-(3-aminopropyl)-17-hydroxy-10,13-dioxo-9,12-diazatricyclo[14.3.1.1^2,6]henicosa-1 (20),2(21),3,5,16,18-hexaene-8-carboxamide tetrahydrochloride” the step yield was 99% of theory.
With “(8S,11S,14S)-14-Amino-N-[(1S)-4-amino-1-({[(5S)-5-amino-6-hydroxyhexyl]amino}carbonyl)butyl]-11-(3-aminopropyl)-17-hydroxy-10,13-dioxo-9,12-diazatricyclo[14.3.1.1^2,6]henicosa-1 (20),2(21),3,5,16,18-hexaene-8-carboxamide tetrahydrochloride” the step yield was 97% of theory.
For “(8S,11S,14S)-14-Amino-N-{(4S)-4-amino-5-[(2-aminoethyl)amino]-5-oxopentyl}-11-[(2R)-3-amino-2-hydroxypropyl]-17-hydroxy-10,13-dioxo-9,12-diazatricyclo[14.3.1.1^2,6]-henicosa-1(20),2(21),3,5,16,18-hexaene-8-carboxamide tetrahydrochloride”, the step yield was 99% of theory.
